In publication PMC10163288:
Some of the results follow.

B1: il10ra_site1_sap_18_mot_HHH_b1_06348_000000162_0001_1_15_H_._HHH_b1_00849_af2_0001_0000300003_0000001_0_0001_af2pred_0001 (protein)
chain: SSSSDEEVVELLFEALELLARGNPEEAHKLVEEAEELAKELGDEELRRAVEILLRYIRLTGSSSS
B2: il10ra_site1_sap_19_mot_HHH_b1_03314_af2_000000278_0001_42_55_H_._HHH_b1_06606_0001_0000500031_0000001_0_0001_af2pred_0001 (protein)
chain: SSSSSSDRARRSVEILLWAAETLDDPRLIELSLRLARQVAEAANDPELEREVERVEEELSSSSSS
B3: il10ra_site1_normal_mot_0750aae41c39e4229e2ea8fa354cc919_0001_1_000000144_0001_37_51_H_._HHH_b2_06980_0001_0000300019_0000001_0_af2pred_0001 (protein)
chain: SSSSDAEVAVRFFARLDRFIRKLGDPEAVEESAEAAKRALKSAGDEEALEELERVLRELLSSSSS
B4: il10ra_site1_normal_mot_fda5df8c19bda1ddfcc41857df859eb0_0001_1_000000120_0001_35_49_H_._HEEHE_1459_0001_0000300017_0000001_0_af2pred_0001 (protein)
chain: DREERAEISVRILAELAGVPEFEVEVENNSVEVTLNGDDEAVRRAEISIEAAARLLNIEISVETL
B5: il10ra_site1_sap_22_mot_HHH_b1_05056_000000217_0001_1_20_H_._HHH_b2_01486_0001_0000300015_0000001_0_0001_af2pred_0001 (protein)
chain: SSSSSITQEVMKILREVVELAREGDEEEAEKLLEEAEELAERANNEILKFIVEFLKEHLNSSSSS
B6: il10ra_site1_normal_mot_HHH_b2_00033_000000036_0001_41_54_H_._HHH_b1_00748_0001_0000200008_0000001_0 (protein)
chain: SSSSDAAELAAAASRLAIRLNDPELFQRLWELAKRIAEEGDPELREELQEIVEELEELISSSSSS
B7: il10ra_site1_normal_mot_HHH_b2_00134_af2_000000004_0001_38_52_H_._d2a7ab61c71473013b01aa2592132fbc_0001_1_0001_0000300016_0000002_0 (protein)
chain: TEQVRKSIKRQLEQGVPPETVLEAVELLLLQRGLSPEEILEIILEALELLGDPELSEEVREKLEK
B8: il10ra_site1_sap_36_mot_HHH_b2_03434_000000017_0001_1_19_H_._HHH_b1_05522_af2_0001_0000300021_0000001_0_0001_af2pred_0001 (protein)
chain: SSSSSEEEKQIRAAKLLLKWALEINNPEAVETALASLKRLAELLNDEEAQELVEEVEKELSSSSS
B9: il10ra_site1_normal_mot_HHH_b1_01874_000000035_0001_1_20_H_._HHH_b2_03159_0001_0000300014_0000001_0 (protein)
chain: SSSSSDEAEEAYRLLREALELLAEGNPEEAERVVEEALEVAEEGGNDVFRFSIELLKRQVSSSSS
B10: il10ra_site1_normal_mot_b26a303360aa2756ef5b79665ce52f45_0001_000000179_0001_1_11_H_._HHH_b2_02191_af2_0001_0000600025_0000001_0_af2pred_0001 (protein)
chain: SSSSSDRAELSEEAQRILRKARKIEDPEEVEELLEQAKKLAEEANNLVLRVAIEFAAKLDSSSSS
B11: il10ra_site1_normal_mot_HHH_b1_02004_000000220_0001_1_19_H_._HHH_b2_04613_af2_0001_0000500033_0000001_0 (protein)
chain: SSSSTDEEFERVKELVEEAAELIENGNPEEAEKLLEEAERLAEESNNEALRFSVEHALRLLSSSS
B12: il10ra_site1_sap_23_mot_d12dd14985caa292ad795d5b907f3ec3_0001_1_af2_000000000_0001_1_12_H_._32ed9a5367f3ec2ad68db539d97dae7e_0001_0001_0000600009_0000001_0_0001 (protein)
chain: SSSSSEEEKRIKELIEEAEELLENGDPREAVRVLAEAVRAAFHAKNRELLRELWEIIKKVDSSSS
B13: il10ra_site1_normal_mot_HHH_b2_01310_000000089_0001_41_55_H_._HHH_b2_04296_af2_0001_0000100005_0000002_0_af2pred_0001 (protein)
chain: SSSSSSELERLVEEIEELLEEGDDEEALRLLRELVRLAFELGDQEVLELALELAELLKELSSSSS
B14: il10ra_site1_normal_mot_HHH_b2_08186_000000021_0001_43_56_H_._HHH_b1_07279_0001_0000600053_0000001_0 (protein)
chain: SSSSSDEEEVRELLEEAEELARRGNPREALRVLLRALRIIFEAQNPELLQELWEVLKRVASSSSS
B15: il10ra_site1_sap_19_mot_HHH_b2_08144_af2_000000046_0001_38_52_H_._9bad734bde242972d24fe2fb55b42ac3_0001_0001_0000100001_0000002_0_0001 (protein)
chain: SSSSDREEIEELIKEIEELIEEGDQEEALQLLWELAKIVAELNDEEALERVQELERLIFRSSSSS
B16: il10ra_site1_sap_10_mot_HHH_b1_07571_000000144_0001_42_58_H_._HHH_b2_02979_0001_0000100010_0000002_0_0001 (protein)
chain: SSSSSSEIVRLAQELVRLAFEKGDEEALQAVWEAIVAWARGELSEEEVKELLEEAEELLSSSSSS
B17: il10ra_site1_sap_14_mot_564a9b831269b2f1d390e2a66eecb176_0001_1_af2_000000064_0001_36_49_H_._HHH_b1_02782_af2_0001_0000300012_0000001_0_0001 (protein)
chain: SSSSSSEEYEEEVRELLEEAERIEDERERNEVLLEALKLAIQGQDPELLRLVWRVVHRLSSSSSS
B18: il10ra_site1_normal_mot_HHH_b1_01879_000000050_0001_1_18_H_._HHH_b1_00882_0001_0000100001_0000001_0 (protein)
chain: SSSSDKEELLKLIARASALAARLNDKETEKRLFQLLIRFWRHGDPRYAEEAEELREELEGSSSSS
B19: il10ra_site1_normal_mot_HHH_b1_02062_000000185_0001_1_20_H_._HHH_b1_02799_af2_0001_0000300032_0000001_0 (protein)
chain: SSSSDELLQEVYELSREAAELDSDGDKEEAEKILEEAEEIAKELGNELFLFQVEYMLRLLKSSSS
B20: il10ra_site1_sap_11_mot_HHH_b1_01307_000000115_0001_1_18_H_._HHH_b1_05552_0001_0000400045_0000001_0_0001 (protein)
chain: SSSSSSEEEEEIRELLEEAEKTEDPREVAKLLLEAVQLAYELQDPELLREVWRVAKKLGSSSSSS
B21: il10ra_site1_sap_21_mot_HHH_b1_05860_000000142_0001_1_19_H_._HHH_b1_07135_af2_0001_0000500015_0000001_0_0001 (protein)
chain: SSSSSSDELLELARRAFRLLLRGDDEEARKILEELEELAEENNNERLLKVVRDMLKALNSSSSSS
B22: il10ra_site1_sap_5_mot_HHH_b1_06788_af2_000000238_0001_19_36_H_._0fbcb473b9ca24b82a5a132671845698_0001_af2_0001_0000100003_0000001_0_0001_af2pred_0001 (protein)
chain: SSSSDDEERLTKRLVESTLEWAKRASEEALEYVLRVAKHLAKALNDEELLKLVEEVEEELSSSSS
B23: il10ra_site1_normal_mot_HHH_b1_04015_af2_000000074_0001_1_17_H_._HHH_b1_04757_af2_0001_0000200012_0000001_0 (protein)
chain: SSSSDESEELTEKVEKELEELLERGDYEEAYKLLKRAIERLVELNDPEAARRLSQAFVKNSSSSS
B24: il10ra_site1_normal_mot_2c1a291787c6f40772924d4e9068d803_0001_af2_000000187_0001_34_48_H_._HHH_b1_04545_af2_0001_0000100008_0000001_0_af2pred_0001 (protein)
chain: SSSSSSEEERILRLLAEAWRLLQKGDPEEAEKLLEEALRLAEEINDEALRLAIELLLETLSSSSS
B25: il10ra_site1_sap_15_mot_HHH_b2_03183_af2_000000055_0001_40_56_H_._HHH_b1_01569_0001_0000100008_0000001_0_0001_af2pred_dldesign_0_af2pred (protein)
chain: SSSSSDPRAEVRRLLEEAKKLEDPEKRADVLRQATRLAWELGDAELIRLVAKVAAELEKSSSSSS
B26: il10ra_site1_normal_mot_HHH_b1_02116_000000087_0001_1_17_H_._HHH_b1_00365_af2_0001_0000200009_0000001_0_af2pred_0001 (protein)
chain: SSSSSSEEEYERVRELLERATQISDEEEVRELLEEARELAEELGSQNLRFVIEFLLRRLSSSSSS
B27: il10ra_site1_sap_15_mot_HHH_b2_00984_000000042_0001_1_20_H_._38696baa2df05fb6b55d0053d3ac79c4_0001_1_0001_0000700012_0000002_0_0001 (protein)
chain: SSSSSDATERLMELIRRAAELDQNGNPEEAEKVLEEAEELAEEEGNFAVLFAVRLLLEILSSSSS
B28: il10ra_site1_sap_21_mot_HHH_b1_06804_000000054_0001_40_54_H_._HHH_b2_03021_0001_0000100008_0000001_0_0001 (protein)
chain: PRNEVIQRLVRLAFREGDPELLRALWKLVELAKEGDPEAEELLEEVAELLKKDEEEAKRLLKELG
B29: il10ra_site1_normal_mot_HHH_b2_03220_af2_000000223_0001_23_40_H_._HHH_b2_00966_0001_0000200034_0000001_0 (protein)
chain: SSSSNEENEEIWRLIREALELLAEGDPEEAREVAEEAEELAREANNPVLLFAIRLLLRDINSSSS
B30: il10ra_site1_normal_mot_HHH_b1_00103_000000293_0001_1_15_H_._HHH_b2_03403_0001_0000200013_0000001_0_af2pred_0001 (protein)
chain: SSSSSSSEEIREVIKLLKKAWEIDDPEEAREVVQEAVELAEEAGDEELLKLARLLLKQLSSSSSS
B31: il10ra_site1_sap_24_mot_674797ffa33fc4f31d963a7257083862_0001_000000202_0001_1_12_H_._HHH_b2_05362_0001_0000300013_0000001_0_0001 (protein)
chain: SSSSSSDEASQEIMELLRRALQIEDPEEARELVEEALELAEENNNMLFLWQAEFLLKRLSSSSSS
B32: il10ra_site1_normal_mot_HHH_b1_01082_af2_000000031_0001_3_19_H_._HHH_b1_02728_af2_0001_0000300015_0000001_0 (protein)
chain: SSSSDELYELVKKVIEKVVELLRNGNPEEAREEIEKILEEVEELGNLVLLASLEHLLRLEFSSSS
B33: il10ra_site1_sap_26_mot_HHH_b1_03314_af2_000000278_0001_42_55_H_._HHH_b2_05136_0002_0000600012_0000001_0_0001_af2pred_dldesign_0_af2pred (protein)
chain: SSSSSSSPEEKAEELYKQYLAAKTEEEKQKLFQELLDLALKTECLKAAQLANEFLKEGSSSSSSS
B34: il10ra_site1_normal_mot_HHH_b1_05357_000000034_0001_23_39_H_._HHH_b2_01639_0001_0000100001_0000002_0 (protein)
chain: SSSSSSDSEEEVEELLEEAKQIEDRRRRSHVLIRAYAIANRANDPELEELVKKVAIELSSSSSSS
B35: il10ra_site1_normal_mot_HHH_b1_05357_000000034_0001_23_39_H_._HHH_b1_03126_0001_0000300035_0000001_1_af2pred_0001 (protein)
chain: SSSSSSEEIREEVEELLEQAKRIPDPRERAYALTRAFALANRLNDPELKKLVEEVAIKLSSSSSS
B36: il10ra_site1_normal_mot_HHH_b2_01397_000000078_0001_23_39_H_._HHH_b1_06054_0001_0000100013_0000001_0 (protein)
chain: SSSSDEEIRRYVKLTARFARFLLEEGDERAARRLVRAAEDVARRENDPELLEELQELLEELSSSS
B37: il10ra_site1_sap_22_mot_HHH_b1_05088_af2_000000046_0001_20_36_H_._HHH_b2_06324_0001_0000400020_0000001_0_0001_af2pred_0001 (protein)
chain: SSSSDREERDAKVTVRALVFYNNLSEEQEELLEELARELLERGVSLEELSRALAELVLELRSSSS

target: il10ra, Q13651; experiment: yeast display titration

Apparent Kd, inactive:
B1 no binding seen
B2 no binding seen
B3 no binding seen
B4 no binding seen
B5 no binding seen
B6 no binding seen
B7 no binding seen
B8 no binding seen
B9 no binding seen
B10 no binding seen
B11 no binding seen
B12 no binding seen
B13 no binding seen
B14 no binding seen
B15 no binding seen
B16 no binding seen
B17 no binding seen
B18 no binding seen
B19 no binding seen
B20 no binding seen
B21 no binding seen
B22 no binding seen
B23 no binding seen
B24 no binding seen
B25 no binding seen
B26 no binding seen
B27 no binding seen
B28 no binding seen
B29 no binding seen
B30 no binding seen
B31 no binding seen
B32 no binding seen
B33 no binding seen
B34 > 0.155 µM
B35 no binding seen
B36 no binding seen
B37 no binding seen

Three neighbouring records already listed, for reference:
Apparent Kd, inactive:
B13 no binding seen
B14 no binding seen
B15 no binding seen
